Reference: paper PMC8187512
Results are given in words; binding and its absence hold for the method and conditions named. Binding seen in cells or lysates may run through a third protein. Some results given as binding are weak or reduced against the parent protein; the word gives no strength.

Chains of the proteins cited; added tags and fusions are not shown.
UniProt Q9R210: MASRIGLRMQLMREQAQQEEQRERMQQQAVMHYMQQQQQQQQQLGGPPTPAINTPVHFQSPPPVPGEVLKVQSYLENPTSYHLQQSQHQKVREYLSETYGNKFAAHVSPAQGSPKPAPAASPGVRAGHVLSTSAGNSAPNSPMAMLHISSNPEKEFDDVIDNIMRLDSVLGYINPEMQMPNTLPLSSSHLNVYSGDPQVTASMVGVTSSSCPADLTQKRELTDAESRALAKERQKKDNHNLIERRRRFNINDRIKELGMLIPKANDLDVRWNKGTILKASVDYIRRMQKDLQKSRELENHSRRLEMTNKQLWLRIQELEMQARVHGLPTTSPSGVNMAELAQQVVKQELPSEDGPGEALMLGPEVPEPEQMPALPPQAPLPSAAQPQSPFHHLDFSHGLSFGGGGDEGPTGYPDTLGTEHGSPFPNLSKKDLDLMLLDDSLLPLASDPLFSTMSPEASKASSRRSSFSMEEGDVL
UniProt Q9QZL0: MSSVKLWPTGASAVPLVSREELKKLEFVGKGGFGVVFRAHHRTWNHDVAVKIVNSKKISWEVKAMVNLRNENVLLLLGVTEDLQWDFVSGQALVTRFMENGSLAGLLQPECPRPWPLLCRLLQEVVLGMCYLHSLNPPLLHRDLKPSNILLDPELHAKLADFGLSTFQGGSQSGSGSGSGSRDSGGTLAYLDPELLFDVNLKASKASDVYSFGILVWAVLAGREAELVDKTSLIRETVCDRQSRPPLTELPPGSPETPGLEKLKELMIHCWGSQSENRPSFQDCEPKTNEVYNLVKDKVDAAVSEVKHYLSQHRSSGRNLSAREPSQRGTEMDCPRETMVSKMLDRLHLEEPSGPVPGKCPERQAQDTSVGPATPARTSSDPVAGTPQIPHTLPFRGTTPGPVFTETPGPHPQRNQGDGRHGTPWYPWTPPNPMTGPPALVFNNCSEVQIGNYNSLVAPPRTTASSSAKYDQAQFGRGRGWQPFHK

Molecular target: Transcription factor EB (mouse (endogenous in mouse primary renal PTECs)) (UniProt Q9R210)
Experiment: co-IP; lysates of cultured mouse PTECs treated with LPS or DMSO (con) for 12 h; Pierce IP Lysis Buffer; anti-RIP3 or anti-TFEB antibody or control IgG on Dynabeads Protein G, 4 °C overnight; immunoblot for TFEB, RIP3 or p-RIP3

| binding | Substance |
| --- | --- |
| binds | Receptor interacting protein kinase 3 (from UniProt Q9QZL0 1-486) |
| binds | phosphorylated RIP3 (from UniProt Q9QZL0 1-486) |
